In the supplement of paper PMC8728848:
The other results are listed elsewhere or left out.

How the values were obtained:
Assay in all cases: glycan array binding signal (z-score within array); higher = stronger binding
Details in all cases: glycan notation: IUPAC condensed, linker removed
[1] = target: Gal(b1-4)GlcNAc(b1-3)Gal(b1-4)GlcNAc(b1-3)Gal(b1-4)GlcNAc(b1-3)Gal(b1-4)GlcNAc(b1-2)Man(a1-3)[Gal(b1-4)GlcNAc(b1-3)Gal(b1-4)GlcNAc(b1-3)Gal(b1-4)GlcNAc(b1-3)Gal(b1-4)GlcNAc(b1-2)Man(a1-6)]Man(b1-4)GlcNAc(b1-4)GlcNAc
Method in brief: (§1)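 Arrays were curated from the Consortium for Functional Glycomics database, 3228 in total, and kept only where the protein sequence was available. Binding is expressed as a within-array Z-score. This score was averaged across arrays of the same protein sequence at different concentrations or buffers and across linkers, and negative values can be read as non-binding.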

[2] = target: Gal(b1-4)GlcNAc(b1-3)Gal(b1-4)GlcNAc(b1-3)Gal(b1-4)GlcNAc(b1-3)Gal(b1-4)GlcNAc(b1-2)Man(a1-3)[Gal(b1-4)GlcNAc(b1-3)Gal(b1-4)GlcNAc(b1-3)Gal(b1-4)GlcNAc(b1-3)Gal(b1-4)GlcNAc(b1-2)Man(a1-6)]Man(b1-4)GlcNAc(b1-4)[Fuc(a1-6)]GlcNAc
Method in brief: as §1

[3] = target: Gal(b1-4)GlcNAc(b1-3)Gal(b1-4)GlcNAc(b1-3)Gal(b1-4)GlcNAc(b1-3)Gal(b1-4)GlcNAc(b1-2)[Gal(b1-4)GlcNAc(b1-3)Gal(b1-4)GlcNAc(b1-3)Gal(b1-4)GlcNAc(b1-3)Gal(b1-4)GlcNAc(b1-6)]Man(a1-6)[Gal(b1-4)GlcNAc(b1-3)Gal(b1-4)GlcNAc(b1-3)Gal(b1-4)GlcNAc(b1-3)Gal(b1-4)GlcNAc(b1-2)Man(a1-3)]Man(b1-4)GlcNAc(b1-4)[Fuc(a1-6)]GlcNAc
Method in brief: as §1

[4] = target: Gal(b1-4)GlcNAc(b1-3)Gal(b1-4)GlcNAc(b1-3)Gal(b1-4)GlcNAc(b1-3)Gal(b1-4)GlcNAc(b1-3)Gal(b1-4)GlcNAc(b1-2)Man(a1-3)[Gal(b1-4)GlcNAc(b1-3)Gal(b1-4)GlcNAc(b1-3)Gal(b1-4)GlcNAc(b1-3)Gal(b1-4)GlcNAc(b1-3)Gal(b1-4)GlcNAc(b1-2)Man(a1-6)]Man(b1-4)GlcNAc(b1-4)GlcNAc
Method in brief: as §1

[5] = target: Gal(b1-4)GlcNAc(b1-3)Gal(b1-4)GlcNAc(b1-3)Gal(b1-4)GlcNAc(b1-3)Gal(b1-4)GlcNAc(b1-3)Gal(b1-4)GlcNAc(b1-2)Man(a1-3)[Gal(b1-4)GlcNAc(b1-3)Gal(b1-4)GlcNAc(b1-3)Gal(b1-4)GlcNAc(b1-3)Gal(b1-4)GlcNAc(b1-3)Gal(b1-4)GlcNAc(b1-2)Man(a1-6)]Man(b1-4)GlcNAc(b1-4)[Fuc(a1-6)]GlcNAc
Method in brief: as §1

[6] = target: Gal(b1-4)GlcNAc(b1-3)Gal(b1-4)GlcNAc(b1-3)Gal(b1-4)GlcNAc(b1-3)Gal(b1-4)GlcNAc(b1-3)Gal(b1-4)GlcNAc(b1-2)[Gal(b1-4)GlcNAc(b1-3)Gal(b1-4)GlcNAc(b1-3)Gal(b1-4)GlcNAc(b1-3)Gal(b1-4)GlcNAc(b1-3)Gal(b1-4)GlcNAc(b1-6)]Man(a1-6)[Gal(b1-4)GlcNAc(b1-3)Gal(b1-4)GlcNAc(b1-3)Gal(b1-4)GlcNAc(b1-3)Gal(b1-4)GlcNAc(b1-3)Gal(b1-4)GlcNAc(b1-2)Man(a1-3)]Man(b1-4)GlcNAc(b1-4)[Fuc(a1-6)]GlcNAc
Method in brief: as §1

[7] = target: Gal(b1-4)GlcNAc(b1-3)Gal(b1-4)GlcNAc(b1-3)Gal(b1-4)GlcNAc(b1-3)Gal(b1-4)GlcNAc(b1-3)Gal(b1-4)GlcNAc(b1-3)Gal(b1-4)GlcNAc(b1-2)Man(a1-3)[Gal(b1-4)GlcNAc(b1-3)Gal(b1-4)GlcNAc(b1-3)Gal(b1-4)GlcNAc(b1-3)Gal(b1-4)GlcNAc(b1-3)Gal(b1-4)GlcNAc(b1-3)Gal(b1-4)GlcNAc(b1-2)Man(a1-6)]Man(b1-4)GlcNAc(b1-4)GlcNAc
Method in brief: as §1

[8] = target: Gal(b1-4)GlcNAc(b1-3)Gal(b1-4)GlcNAc(b1-3)GalNAc
Method in brief: as §1

[9] = target: Gal(b1-4)GlcNAc(b1-3)Gal(b1-4)GlcNAc(b1-3)[Gal(b1-4)GlcNAc(b1-3)Gal(b1-4)GlcNAc(b1-6)]GalNAc
Method in brief: as §1

[10] = target: Gal(b1-4)GlcNAc(b1-3)Gal(b1-4)GlcNAc(b1-6)[Gal(b1-3)]GalNAc
Method in brief: as §1

[11] = target: Gal(b1-4)GlcNAc(b1-3)Gal(b1-4)[Fuc(a1-3)]GlcNAc(b1-3)Gal(b1-4)[Fuc(a1-3)]GlcNAc
Method in brief: as §1

[12] = target: Gal(b1-4)GlcNAc(b1-3)GalNAc
Method in brief: as §1

[13] = target: Gal(b1-4)GlcNAc(b1-3)[Fuc(a1-3)GlcNAc(b1-6)]Gal(b1-4)Glc
Method in brief: as §1

[14] = target: Gal(b1-4)GlcNAc(b1-3)[Gal(b1-4)GlcNAc(b1-6)]Gal(b1-4)GlcNAc
Method in brief: as §1

[15] = target: Gal(b1-4)GlcNAc(b1-3)[GlcNAc(b1-6)]Gal(b1-4)GlcNAc
Method in brief: as §1

[16] = target: Gal(b1-4)GlcNAc(b1-6)Gal(b1-4)GlcNAc
Method in brief: as §1

[17] = target: Gal(b1-4)GlcNAc(b1-6)GalNAc
Method in brief: as §1

[18] = target: Gal(b1-4)GlcNAc(b1-6)[Gal(b1-3)]GalNAc
Method in brief: as §1

[19] = target: Gal(b1-4)GlcNAc(b1-6)[Gal(b1-4)GlcNAc(b1-3)]GalNAc
Method in brief: as §1

Gal(b1-4)GlcNAc6P = target: Gal(b1-4)GlcNAc6P
Method in brief: as §1

Gal(b1-6)Gal = target: Gal(b1-6)Gal
Method in brief: as §1

Gal3S(b1-3)GalNAc = target: Gal3S(b1-3)GalNAc
Method in brief: as §1

Gal3S(b1-3)GlcNAc = target: Gal3S(b1-3)GlcNAc
Method in brief: as §1

B1: XTP3-B-MRH2 (Homo sapiens), Q96DZ1 (protein)
chain: EFLSGSYCFRGGVGWWKYEFCYGKHVHQYHEDKDSGKTSVVVGTWNQEEHIEWAKKNTARAYHLQDDGTQTVRMVSHFYGNGDICDITDKPRQVTVKLKCKESDSPHAVTVYMLEPHSCQYILGVESPVICKILDTA
**Q.** Which results are given for B1?
**A.** glycan array binding signal (z-score) [1]: -0.993; glycan array binding signal (z-score) [2]: 1.25; glycan array binding signal (z-score) [3]: -0.003; glycan array binding signal (z-score) [4]: 1.58; glycan array binding signal (z-score) [5]: 0.764; glycan array binding signal (z-score) [6]: -0.908; glycan array binding signal (z-score) [7]: -0.498; glycan array binding signal (z-score) [8]: 0.3; glycan array binding signal (z-score) [9]: -0.807; glycan array binding signal (z-score) [10]: -0.431; glycan array binding signal (z-score) [11]: 1.42; glycan array binding signal (z-score) [12]: -1.45; glycan array binding signal (z-score) [13]: -0.78; glycan array binding signal (z-score) [14]: -0.399; glycan array binding signal (z-score) [15]: 0.199; glycan array binding signal (z-score) [16]: -0.66; glycan array binding signal (z-score) [17]: -0.837; glycan array binding signal (z-score) [18]: -0.315; glycan array binding signal (z-score) [19]: 0.934; glycan array binding signal (z-score) (Gal(b1-4)GlcNAc6P): -1.42; glycan array binding signal (z-score) (Gal(b1-6)Gal): -0.532; glycan array binding signal (z-score) (Gal3S(b1-3)GalNAc): 1.26; glycan array binding signal (z-score) (Gal3S(b1-3)GlcNAc): -0.364
